{"source": "paper PMC12394690", "target": "T1, DCAF7 of the GST pull-down (UniProt P61962)", "T1 sequence": "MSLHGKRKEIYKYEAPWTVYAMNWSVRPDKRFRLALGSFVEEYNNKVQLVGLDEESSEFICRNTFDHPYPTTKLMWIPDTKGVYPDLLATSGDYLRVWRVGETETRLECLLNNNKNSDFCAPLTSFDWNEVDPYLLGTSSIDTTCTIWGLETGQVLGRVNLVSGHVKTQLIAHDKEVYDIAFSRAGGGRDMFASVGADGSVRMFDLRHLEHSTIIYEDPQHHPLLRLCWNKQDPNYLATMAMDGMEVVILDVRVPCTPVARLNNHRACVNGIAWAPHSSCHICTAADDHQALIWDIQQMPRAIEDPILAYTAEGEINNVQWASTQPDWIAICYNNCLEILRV", "test": "pull-down; GST pull-down in vitro; the paper calls the binding direct; which partner carried GST is not told", "note": "These are yes or no findings as the source states them, for the method shown. In cells and extracts the contact can be indirect. Binding calls can cover weak binding; strength is not graded here. Where a sequence is shown, tags or fusion partners need not be part of it."}
{"substance": "USP2b of the GST pull-down (from UniProt O75604-4) (enzyme)", "values": [{"measurement": "binding", "result": "binds"}]}
